Reference: article doi:10.1101/2025.06.16.658187
Results are given in words; binding and its absence hold for the method and conditions named. In cells and extracts the contact can be indirect. Some entries that bind do so weakly or less than the wild type. Where a sequence is shown, tags or fusion partners need not be part of it.

The chains behind the UniProt entries cited, without tags or fusion partners.
UniProt Q13263: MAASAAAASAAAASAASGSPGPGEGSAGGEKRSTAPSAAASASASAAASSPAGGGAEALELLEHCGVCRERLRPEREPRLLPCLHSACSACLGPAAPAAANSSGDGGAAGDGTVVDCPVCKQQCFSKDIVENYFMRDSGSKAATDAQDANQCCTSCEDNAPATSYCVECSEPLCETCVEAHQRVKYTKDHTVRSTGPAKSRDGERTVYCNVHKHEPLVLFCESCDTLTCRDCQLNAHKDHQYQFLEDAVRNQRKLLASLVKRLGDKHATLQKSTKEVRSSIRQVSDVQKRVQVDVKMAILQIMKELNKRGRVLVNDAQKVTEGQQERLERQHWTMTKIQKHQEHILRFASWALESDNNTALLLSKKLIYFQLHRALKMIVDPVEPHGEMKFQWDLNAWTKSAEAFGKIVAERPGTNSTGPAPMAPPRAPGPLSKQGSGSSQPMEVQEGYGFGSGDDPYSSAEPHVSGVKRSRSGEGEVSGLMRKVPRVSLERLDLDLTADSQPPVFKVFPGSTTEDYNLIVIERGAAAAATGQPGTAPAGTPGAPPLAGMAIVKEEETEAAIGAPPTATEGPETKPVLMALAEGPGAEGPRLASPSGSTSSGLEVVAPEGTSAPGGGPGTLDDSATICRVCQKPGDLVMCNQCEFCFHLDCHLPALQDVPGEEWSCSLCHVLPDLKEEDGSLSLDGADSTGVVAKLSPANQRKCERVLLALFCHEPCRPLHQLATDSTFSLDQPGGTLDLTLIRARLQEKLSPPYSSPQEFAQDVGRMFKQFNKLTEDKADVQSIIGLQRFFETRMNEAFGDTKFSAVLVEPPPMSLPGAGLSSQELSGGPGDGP

Experiments:
Flag-tagged COUP-TF2 = target: T1, Flag-tagged COUP-TF2 (UniProt P24468); experiment: co-IP
T1 sequence: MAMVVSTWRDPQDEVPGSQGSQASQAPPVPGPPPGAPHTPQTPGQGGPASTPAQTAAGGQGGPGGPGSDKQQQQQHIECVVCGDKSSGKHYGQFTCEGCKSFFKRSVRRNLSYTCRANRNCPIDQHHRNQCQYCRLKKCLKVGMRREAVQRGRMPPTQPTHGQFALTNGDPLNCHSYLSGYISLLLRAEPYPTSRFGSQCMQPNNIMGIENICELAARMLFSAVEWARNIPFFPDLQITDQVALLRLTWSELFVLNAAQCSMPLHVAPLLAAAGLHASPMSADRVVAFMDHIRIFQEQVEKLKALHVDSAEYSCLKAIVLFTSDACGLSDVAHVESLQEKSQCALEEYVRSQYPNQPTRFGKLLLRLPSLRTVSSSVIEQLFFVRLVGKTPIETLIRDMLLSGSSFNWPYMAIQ

Flag-tagged TR4 = target: T2, Flag-tagged TR4 (UniProt P49116); experiment: co-IP
T2 sequence: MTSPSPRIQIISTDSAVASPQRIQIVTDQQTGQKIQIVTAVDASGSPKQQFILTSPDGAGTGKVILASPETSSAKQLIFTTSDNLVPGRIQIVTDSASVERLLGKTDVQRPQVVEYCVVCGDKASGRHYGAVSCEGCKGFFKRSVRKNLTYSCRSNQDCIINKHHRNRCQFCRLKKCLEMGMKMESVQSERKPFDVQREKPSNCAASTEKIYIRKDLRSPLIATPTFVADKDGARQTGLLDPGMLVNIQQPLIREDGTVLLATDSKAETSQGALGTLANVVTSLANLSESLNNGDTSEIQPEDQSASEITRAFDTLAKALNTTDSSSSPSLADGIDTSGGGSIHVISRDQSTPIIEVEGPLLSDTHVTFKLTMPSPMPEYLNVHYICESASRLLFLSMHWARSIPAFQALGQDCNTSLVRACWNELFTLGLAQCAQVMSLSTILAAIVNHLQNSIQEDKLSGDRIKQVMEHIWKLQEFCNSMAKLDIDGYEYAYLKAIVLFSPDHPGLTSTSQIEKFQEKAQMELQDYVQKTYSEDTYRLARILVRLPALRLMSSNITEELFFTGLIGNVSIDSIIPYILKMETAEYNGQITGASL

Substance: Tripartite motif-containing 28 (TRIM28), endogenous in WI38-VA13/2RA cells (from UniProt Q13263 1-835)
- binding (Flag-tagged COUP-TF2): binds
- binding (Flag-tagged TR4): binds
